From doi:10.1101/2020.09.09.289009

Chains of the proteins cited; added tags and fusions are not shown.
UniProt Q96JI7: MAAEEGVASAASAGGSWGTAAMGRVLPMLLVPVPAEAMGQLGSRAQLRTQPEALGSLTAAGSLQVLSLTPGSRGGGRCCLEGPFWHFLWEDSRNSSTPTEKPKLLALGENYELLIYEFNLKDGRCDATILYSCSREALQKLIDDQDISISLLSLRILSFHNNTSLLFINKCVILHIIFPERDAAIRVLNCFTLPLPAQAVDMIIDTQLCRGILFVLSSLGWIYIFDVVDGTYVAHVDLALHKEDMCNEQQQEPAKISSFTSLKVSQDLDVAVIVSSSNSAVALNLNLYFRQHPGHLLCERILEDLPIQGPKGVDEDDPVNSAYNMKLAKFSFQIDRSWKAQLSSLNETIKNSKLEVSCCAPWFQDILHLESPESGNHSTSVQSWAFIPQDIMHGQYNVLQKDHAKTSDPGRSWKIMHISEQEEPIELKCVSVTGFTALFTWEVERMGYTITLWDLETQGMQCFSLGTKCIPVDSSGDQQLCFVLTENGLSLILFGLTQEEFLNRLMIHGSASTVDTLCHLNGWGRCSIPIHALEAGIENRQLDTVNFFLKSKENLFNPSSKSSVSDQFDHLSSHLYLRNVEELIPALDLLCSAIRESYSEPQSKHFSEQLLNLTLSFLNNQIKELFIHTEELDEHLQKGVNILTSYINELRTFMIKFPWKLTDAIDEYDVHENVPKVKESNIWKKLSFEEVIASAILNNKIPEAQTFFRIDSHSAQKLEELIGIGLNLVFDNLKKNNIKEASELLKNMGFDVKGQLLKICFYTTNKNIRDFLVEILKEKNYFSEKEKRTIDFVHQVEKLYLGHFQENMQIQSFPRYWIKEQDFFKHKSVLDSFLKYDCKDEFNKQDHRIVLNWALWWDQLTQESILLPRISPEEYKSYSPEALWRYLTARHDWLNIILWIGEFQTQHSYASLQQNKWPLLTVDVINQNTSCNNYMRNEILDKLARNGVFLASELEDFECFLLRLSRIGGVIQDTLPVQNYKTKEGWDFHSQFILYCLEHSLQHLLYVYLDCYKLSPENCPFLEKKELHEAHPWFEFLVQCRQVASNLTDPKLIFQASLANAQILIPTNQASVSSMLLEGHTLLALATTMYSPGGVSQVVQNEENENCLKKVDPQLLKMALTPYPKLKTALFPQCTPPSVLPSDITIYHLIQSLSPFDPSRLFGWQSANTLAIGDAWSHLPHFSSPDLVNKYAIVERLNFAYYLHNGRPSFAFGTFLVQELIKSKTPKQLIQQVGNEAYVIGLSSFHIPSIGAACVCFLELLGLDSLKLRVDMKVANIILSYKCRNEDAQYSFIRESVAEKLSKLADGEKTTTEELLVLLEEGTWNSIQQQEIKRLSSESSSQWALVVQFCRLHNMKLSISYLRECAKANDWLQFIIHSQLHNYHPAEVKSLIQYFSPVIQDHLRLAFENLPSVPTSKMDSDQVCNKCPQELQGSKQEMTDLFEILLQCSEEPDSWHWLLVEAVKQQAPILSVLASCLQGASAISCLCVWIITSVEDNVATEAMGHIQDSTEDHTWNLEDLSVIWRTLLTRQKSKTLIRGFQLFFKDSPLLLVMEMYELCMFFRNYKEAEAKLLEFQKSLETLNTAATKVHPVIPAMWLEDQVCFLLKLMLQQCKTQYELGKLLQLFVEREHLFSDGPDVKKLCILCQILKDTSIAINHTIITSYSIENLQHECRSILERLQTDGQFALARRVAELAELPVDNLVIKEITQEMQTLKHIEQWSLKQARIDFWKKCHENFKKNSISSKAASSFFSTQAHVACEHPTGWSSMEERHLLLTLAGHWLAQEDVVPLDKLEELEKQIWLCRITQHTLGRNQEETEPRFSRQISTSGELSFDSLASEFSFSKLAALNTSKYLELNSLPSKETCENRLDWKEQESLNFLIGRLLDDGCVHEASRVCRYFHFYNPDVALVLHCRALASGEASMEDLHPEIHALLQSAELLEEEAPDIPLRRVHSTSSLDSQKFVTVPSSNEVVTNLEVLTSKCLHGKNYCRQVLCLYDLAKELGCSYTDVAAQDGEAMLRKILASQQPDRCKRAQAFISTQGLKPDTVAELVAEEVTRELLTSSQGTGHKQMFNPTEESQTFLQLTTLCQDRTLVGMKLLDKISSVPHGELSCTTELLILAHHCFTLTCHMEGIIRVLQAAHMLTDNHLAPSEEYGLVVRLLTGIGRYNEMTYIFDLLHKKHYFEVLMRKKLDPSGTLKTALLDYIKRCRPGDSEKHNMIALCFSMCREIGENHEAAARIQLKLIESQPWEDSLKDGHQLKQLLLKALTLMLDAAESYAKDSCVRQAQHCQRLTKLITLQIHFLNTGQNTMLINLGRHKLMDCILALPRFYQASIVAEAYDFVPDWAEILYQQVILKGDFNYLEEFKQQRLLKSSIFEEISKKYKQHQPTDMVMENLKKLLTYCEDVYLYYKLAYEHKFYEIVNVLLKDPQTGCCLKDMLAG
UniProt P68510: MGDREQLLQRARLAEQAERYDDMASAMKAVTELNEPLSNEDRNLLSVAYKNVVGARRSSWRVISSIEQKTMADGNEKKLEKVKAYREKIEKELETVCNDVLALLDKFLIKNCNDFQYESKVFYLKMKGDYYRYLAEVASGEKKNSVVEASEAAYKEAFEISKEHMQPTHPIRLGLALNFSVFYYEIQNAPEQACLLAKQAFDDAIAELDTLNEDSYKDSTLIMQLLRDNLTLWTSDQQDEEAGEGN
UniProt P62259: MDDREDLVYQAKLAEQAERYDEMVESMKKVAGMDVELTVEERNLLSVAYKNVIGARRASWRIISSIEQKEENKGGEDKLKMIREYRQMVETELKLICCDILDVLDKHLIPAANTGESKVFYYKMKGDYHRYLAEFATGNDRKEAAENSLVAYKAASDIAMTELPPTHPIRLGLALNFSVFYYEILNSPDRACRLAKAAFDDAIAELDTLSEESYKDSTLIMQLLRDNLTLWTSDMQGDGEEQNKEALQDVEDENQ
UniProt P63101: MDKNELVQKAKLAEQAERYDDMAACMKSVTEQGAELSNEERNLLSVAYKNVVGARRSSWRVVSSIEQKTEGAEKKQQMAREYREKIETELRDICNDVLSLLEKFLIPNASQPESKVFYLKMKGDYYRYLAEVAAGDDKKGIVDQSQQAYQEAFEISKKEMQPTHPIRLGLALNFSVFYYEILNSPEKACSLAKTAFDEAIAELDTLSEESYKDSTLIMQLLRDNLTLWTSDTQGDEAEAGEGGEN

B1: 14-3-3 protein beta (mouse brain) (protein, UniProt Q9CQV8 1-246)
chain: MTMDKSELVQKAKLAEQAERYDDMAAAMKAVTEQGHELSNEERNLLSVAYKNVVGARRSSWRVISSIEQKTERNEKKQQMGKEYREKIEAELQDICNDVLELLDKYLILNATQAESKVFYLKMKGDYFRYLSEVASGENKQTTVSNSQQAYQEAFEISKKEMQPTHPIRLGLALNFSVFYYEILNSPEKACSLAKTAFDEAIAELDTLNEESYKDSTLIMQLLRDNLTLWTSENQGDEGDAGEGEN
B2: 14-3-3 protein gamma (mouse brain) (protein, UniProt P61982 1-247)
chain: MVDREQLVQKARLAEQAERYDDMAAAMKNVTELNEPLSNEERNLLSVAYKNVVGARRSSWRVISSIEQKTSADGNEKKIEMVRAYREKIEKELEAVCQDVLSLLDNYLIKNCSETQYESKVFYLKMKGDYYRYLAEVATGEKRATVVESSEKAYSEAHEISKEHMQPTHPIRLGLALNYSVFYYEIQNAPEQACHLAKTAFDDAIAELDTLNEDSYKDSTLIMQLLRDNLTLWTSDQQDDDGGEGNN
B3: 14-3-3 protein theta (mouse brain) (protein, UniProt P68254 1-245)
chain: MEKTELIQKAKLAEQAERYDDMATCMKAVTEQGAELSNEERNLLSVAYKNVVGGRRSAWRVISSIEQKTDTSDKKLQLIKDYREKVESELRSICTTVLELLDKYLIANATNPESKVFYLKMKGDYFRYLAEVACGDDRKQTIENSQGAYQEAFDISKKEMQPTHPIRLGLALNFSVFYYEILNNPELACTLAKTAFDEAIAELDTLNEDSYKDSTLIMQLLRDNLTLWTSDSAGEECDAAEGAEN

These molecules were tested against 3xFlag-tagged spatacsin (wild type), from HeLa cells (human) (UniProt Q96JI7) (assay: affinity purification with mass spectrometry).
“14-3-3 protein eta (mouse brain) (from UniProt P68510 1-246)” was tested, and the binding was “binds”. “14-3-3 protein epsilon (mouse brain) (from UniProt P62259 1-255)” was tested, and the binding was “binds”. In the case of “14-3-3 protein zeta (mouse brain) (from UniProt P63101 1-245)”, the binding is reported as “binds”. For B1, the binding was “binds”. For B2, the binding was “binds”. For B3, the binding was “binds”.

Results are given in words; binding and its absence hold for the method and conditions named. Binding seen in cells or lysates may run through a third protein. A yes stands for co-enrichment or nearness to the bait. Other partners may have been found.
